Laboratory results taken from PubChem BioAssay AID1347426 (Functional Genomics Laboratory (NCATS/FGL), 2020).
About 1,400 (4.5%) of roughly 31,000 sequences were called active.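 The calls were made as follows: active = median seed-adjusted z-score above 1 or below -1; inactive = the rest.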 The list shows a part of the results.

test: Novel Modifiers of Survival Motor Neuron (SMN) Protein: Gene Identification via Genome-wide siRNA Screen; settings: HEK293T SMN2-luciferase reporter, siRNA knockdown, 72 h; actives lie on both sides;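 also: luminescence tracks full-length SMN protein made from the SMN2 reporter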
Outline: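 Steps: spot 1 pmol siRNA, add Lipofectamine RNAiMax in serum-free DMEM, seed HEK293T SMN2–luciferase reporter cells; incubate 72 h at 37 °C; add ONE-Glo; normalize luminescence to control siRNA, log10, MAD. Candidates: |MAD| > 1.0.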

Row | Sequence | median seed-adjusted z-score
1 | CUACCAUGCUUGCUAUACATT against ERCC4 | inactive: -0.00878
2 | GCAUAGUACGAAAUUGGGATT against ACTR2 | inactive: 0.548
3 | CCCUCAAUUUGGUCUGUUUTT against SPINK2 | inactive: -0.431
4 | CUAUAUUCGUGUUCUUGUUTT against SEMA6C | inactive: 0.321
5 | CAGUGGGAGCAGUUAAAUATT against SERPIND1 | inactive: 0.133
6 | GCAUUUAUCAUAGAGAGAATT against ZNF254 | inactive: 0.088
7 | GAGUGGACAUUCUAAUCAATT against RDH13 | inactive: 0.208
8 | GGAUAUUUACCAAAGGAGATT against NXF3 | inactive: 0.672
9 | GGAUAUCCAGUGAUCGUUATT against IL12RB1 | inactive: -0.126
10 | AAACAUUCCCUGAUAAGUATT against GPR176 | inactive: 0.0782
11 | GGCUUACGGUUAUUCCAGATT against DGKD | inactive: 0.35
12 | ACCAGGUGCUCUCCAAUAATT against PADI3 | inactive: 0.147
13 | GGAUAUGAGUUACAUGACATT against GALNT5 | inactive: -0.279
14 | GAGUUUGCCUUGUUAAUCUTT against REG1A | inactive: 0.596
15 | GGAUCUGAUUCAUUGCUCATT against CNOT7 | inactive: 0.716
16 | CAUCUUCACGCUGACCGUCTT against UTS2R | inactive: 0.0819
17 | CUAGCACGCUGCUCACUGATT against NAGS | inactive: 0.0484
18 | GGAAACCGCAAGAACCUAATT against THAP3 | inactive: 0.269
19 | GGAUCCCUUUUGCAAGAUATT against EIF2AK4 | inactive: -0.188
20 | GAUUGCGUCUGGAGACUUATT against RNF148 | inactive: 0.552
21 | UCAACAUCCUCAAAGGGUATT against GGT1 | inactive: -0.0421
22 | CCUUUGACCAGAUCCAUGATT against STX17 | inactive: 0.00965

Row | Sequence | median seed-adjusted z-score
23 | CUCACCUACUGGAACCUGATT against ZBED4 | inactive: -0.553
24 | GACUCAGAACGACAACCAATT against KIF4B | inactive: -0.0753
25 | AGCGGUCAAGAAUCCAGAATT against ZNF673 | inactive: 0.419
26 | CGACUCUUCACGUCAUUUATT against FA2H | inactive: 0.0497
27 | GCAUCAAAGUGCGGAUACATT against RAB15 | inactive: -0.616
28 | GGAGUCAGGUGAUAAUGGATT against TGFBR3 | inactive: 0.285
29 | GAGAUGCUGUGAGUAGGUATT against TTC9C | inactive: -0.571
30 | CGGCCUUACUUUUUCAUCUTT against TRIM58 | inactive: -0.582
31 | GCCUAUCACAGAUGAACAATT against ADSL | inactive: 0
32 | GCAUCUUUACAGACCAGUUTT against BCL6 | inactive: -0.352
33 | CCAUAAGACCCAAAACAGATT against SKI | inactive: -0.139
34 | GGUUCACGUUUACAGAGCATT against B3GAT1 | inactive: 0.503
35 | ACAUAGAAAAUGCCUGCUATT against CDA | inactive: 0.471
36 | GCUCAUCAACAAGGAGAAATT against SIRT2 | inactive: 0.727
37 | GAAUAAGUAUCGGACUCUATT against BTN3A1 | inactive: -0.198
38 | CCCUGAGGCUUGUUACAUUTT against PBK | inactive: -0.311
39 | GGCCGAGUCUAAAGACCAATT against ALDH8A1 | inactive: 0.0628
40 | GCUCGUAUCUUACUUAGGATT against VCL | inactive: 0
41 | CCAAUCUCAUAGAACUUGATT against ARRB1 | inactive: -0.205
42 | GAAGCAGGUCGAGCACAUATT against PRKACG | inactive: 0
43 | CAUCGGUGCCCAGAAGUCATT against SSBP4 | inactive: 0.254
44 | GCAAUGUCCGGAUCUCUGATT against GRK1 | inactive: 0.0807

As entered above:
AGCGGUCAAGAAUCCAGAATT against ZNF673 – median seed-adjusted z-score: inactive: 0.419
CGGCCUUACUUUUUCAUCUTT against TRIM58 – median seed-adjusted z-score: inactive: -0.582
GAGUUUGCCUUGUUAAUCUTT against REG1A – median seed-adjusted z-score: inactive: 0.596
GAAUAAGUAUCGGACUCUATT against BTN3A1 – median seed-adjusted z-score: inactive: -0.198

Two records picked at random from the list so far, as already listed:
Row | Sequence | median seed-adjusted z-score
40 | GCUCGUAUCUUACUUAGGATT against VCL | inactive: 0
25 | AGCGGUCAAGAAUCCAGAATT against ZNF673 | inactive: 0.419

(further entries)

Row | Sequence | median seed-adjusted z-score
45 | CAUCCACUCUGGUGACAAATT against ZNF513 | inactive: -0.0616
46 | CACACAUCAUGUUAGUCCUTT against GTF2H2 | inactive: -0.00624
47 | UGUCUUCUCGGACAAAGUATT against CLDN10 | inactive: 0.0399
48 | CAAUUUGCCCUAUCUUACATT against HSPA9 | inactive: 0.622
49 | GCUCAUCUCUUACUUACCATT against ZFP37 | inactive: -0.305
50 | CGACAUUGCCCUGCUCAAATT against ELA2B | inactive: -0.154
51 | ACCUGCGGGUGUUAUCAAATT against SLC25A38 | inactive: 0
52 | GGGAAGAACUGGAUGUUCATT against CHERP | inactive: 0.155
53 | GCAUCUUCGACACCAACUATT against CPN2 | inactive: 0.0491
54 | CCUUUUAGGAGGUAGUGUATT against OCLN | inactive: 0.232
55 | GGCUGAGGAUAAUAGAGUUTT against GLYATL1 | inactive: 0.0148
56 | GGAGAAUCUUUUAGCUGAATT against TUSC3 | inactive: 0.138
57 | GGGUCGUUACGUUAGGAUUTT against TRIM23 | inactive: -0.318
58 | GGGCAGAACUCUUUGAGAATT against POLL | inactive: -0.334
59 | GGAUGACGGUGUCUACUCATT against CLCA1 | inactive: 0.015
60 | UCAAGGCCCUGUGCGCUAATT against PPP4C | active: 1.15
61 | GGAGAGCAUUCAAACAGUUTT against IL24 | inactive: -0.125
62 | CGUGUUUAUAAUUACCGAATT against MED14 | active: -3.22
63 | GGUGAACGACGUGACCUCUTT against CDX4 | inactive: 0.181
64 | CCCAGAUUUUAGUACAGUUTT against PEX3 | inactive: 0.142
65 | GAUUAUCACAACUAUCAAATT against NUFIP1 | inactive: -0.673
66 | GGUCCAGUGUGGUUCUCUATT against HMX3 | inactive: 0.238

Row | Sequence | median seed-adjusted z-score
67 | ACCUAAUUGAUUUCCGGGATT against GGT7 | inactive: 0.135
68 | CCUCGGCAGUGAAACCACATT against SERPINA13 | inactive: -0.403
69 | AGCUCAUGGCCUACUGGUATT against ADRA2C | inactive: 0
70 | CCACAAAUGUAGUAGAACATT against DYNLT1 | inactive: 0.764
71 | CGGUCGGUCCUUUACAACATT against ZNF143 | inactive: -0.357
72 | AGACCGUCACCUCCUUUUATT against BCKDK | inactive: 0
73 | CGGCAAAGAUCAUCCAUAUTT against SMYD2 | inactive: -0.393
74 | GCCUUUCAGUCAUCGCGCATT against PLXND1 | inactive: -0.064
75 | CGCAAAAAGUGGUCGUGGATT against TRMT1 | inactive: -0.224
76 | GCUGCGAGCUCGAAACUUUTT against SEC14L4 | inactive: -0.714
77 | ACCUGUUCAUGGUGCAUCATT against CHST13 | inactive: -0.447
78 | CGGGAGAGAUUAGAGCUCATT against PDE11A | inactive: 0
79 | AGUUUGCAAAGUUCGCUUUTT against GPR162 | inactive: 0.195
80 | CCUGAUUAUUUAGACUCCATT against CMKLR1 | inactive: -0.704
81 | GCAAGAUAACAAUUGAUAUTT against ANKRD30A | inactive: 0.259
82 | GGAUUCACACGGGAAUUAATT against ZNF649 | inactive: 0.259
83 | GGAUUGAUGUUAGUACUCATT against COPS5 | inactive: -0.124
84 | GAAGAUUCGCCGUUACAAATT against HDGF2 | inactive: 0
85 | GGAGCGGCACAGUAUGAAATT against MYO1E | inactive: -0.02
86 | CGUUAACAGGCAGCAUAAATT against TICAM2 | inactive: -0.256
87 | GUCUCUAGAUCAUUCUGUUTT against LHX3 | inactive: 0.622
88 | GAUCUACACUUGUUCGGCATT against ZNF132 | inactive: -0.484

Row | Sequence | median seed-adjusted z-score
89 | GCUUCUACCUUGAGGUUAATT against ZNF549 | inactive: 0.0114
90 | GGAAUCAGUUGCAUGAAUATT against PPA1 | inactive: -0.0865
91 | CCACCGCAGUGACAACAGUTT against GPR20 | inactive: 0.442
92 | CCAGCUGCCUACAAAGACATT against CLDN14 | inactive: -0.456
93 | CCAUCGGAAUCUUGACGAATT against MX1 | active: -1.49
94 | GAUUAUCCCUGGUCCAAAATT against MYBPC1 | inactive: 0.295
95 | GACGAACACUUUCUCGUAUTT against SLC26A4 | inactive: 0.274
96 | ACAUGACACUGUGCAGGAATT against GPR120 | inactive: -0.578
97 | UGGACUUCAUGAGUAUAAATT against PCTP | inactive: 0.446
98 | GGAGGACCAUCGAGCUAAATT against GRIK5 | inactive: -0.242
99 | GGAUCGAGGGAAUCAAGAATT against ITPKB | inactive: -0.142
100 | CAAGAAAAGUUAUAAGUUUTT against CYP3A7 | inactive: -0.107
101 | GGAUGUCCAAUUACCAAAATT against ZNF684 | inactive: 0.189
102 | CGUUUGUCCGUGCUAGAAATT against MTHFD1L | inactive: -0.0577
103 | GACCCUCGGCGUCAUCUUUTT against NUDT14 | inactive: 0.479
104 | UGUGAAAUGUUUGUCUUUUTT against NR2F6 | inactive: -0.681
105 | GGGAUUCGAUGGAUUCUUUTT against PRICKLE1 | inactive: -0.486
106 | GGAGGAACUCAGGAACAAATT against CYB5R3 | inactive: -0.901
107 | CACUCAGCGUGGACCAUUUTT against HCN3 | inactive: 0.301
